In assay [1] the target is T1, RPM1-interacting protein 4 (RIN4), in A. thaliana plants (A. thaliana) (UniProt Q8GYN5).
T1 sequence: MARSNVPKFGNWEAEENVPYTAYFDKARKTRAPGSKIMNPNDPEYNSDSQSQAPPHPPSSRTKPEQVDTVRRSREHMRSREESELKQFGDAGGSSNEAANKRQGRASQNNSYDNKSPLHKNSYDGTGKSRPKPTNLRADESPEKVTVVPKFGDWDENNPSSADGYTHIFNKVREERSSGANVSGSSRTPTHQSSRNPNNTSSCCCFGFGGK
Kind of assay: co-IP.

The chains behind the UniProt entries cited, without tags or fusion partners. Residues count along the entry.
UniProt C0LGT6, residues 25-1031: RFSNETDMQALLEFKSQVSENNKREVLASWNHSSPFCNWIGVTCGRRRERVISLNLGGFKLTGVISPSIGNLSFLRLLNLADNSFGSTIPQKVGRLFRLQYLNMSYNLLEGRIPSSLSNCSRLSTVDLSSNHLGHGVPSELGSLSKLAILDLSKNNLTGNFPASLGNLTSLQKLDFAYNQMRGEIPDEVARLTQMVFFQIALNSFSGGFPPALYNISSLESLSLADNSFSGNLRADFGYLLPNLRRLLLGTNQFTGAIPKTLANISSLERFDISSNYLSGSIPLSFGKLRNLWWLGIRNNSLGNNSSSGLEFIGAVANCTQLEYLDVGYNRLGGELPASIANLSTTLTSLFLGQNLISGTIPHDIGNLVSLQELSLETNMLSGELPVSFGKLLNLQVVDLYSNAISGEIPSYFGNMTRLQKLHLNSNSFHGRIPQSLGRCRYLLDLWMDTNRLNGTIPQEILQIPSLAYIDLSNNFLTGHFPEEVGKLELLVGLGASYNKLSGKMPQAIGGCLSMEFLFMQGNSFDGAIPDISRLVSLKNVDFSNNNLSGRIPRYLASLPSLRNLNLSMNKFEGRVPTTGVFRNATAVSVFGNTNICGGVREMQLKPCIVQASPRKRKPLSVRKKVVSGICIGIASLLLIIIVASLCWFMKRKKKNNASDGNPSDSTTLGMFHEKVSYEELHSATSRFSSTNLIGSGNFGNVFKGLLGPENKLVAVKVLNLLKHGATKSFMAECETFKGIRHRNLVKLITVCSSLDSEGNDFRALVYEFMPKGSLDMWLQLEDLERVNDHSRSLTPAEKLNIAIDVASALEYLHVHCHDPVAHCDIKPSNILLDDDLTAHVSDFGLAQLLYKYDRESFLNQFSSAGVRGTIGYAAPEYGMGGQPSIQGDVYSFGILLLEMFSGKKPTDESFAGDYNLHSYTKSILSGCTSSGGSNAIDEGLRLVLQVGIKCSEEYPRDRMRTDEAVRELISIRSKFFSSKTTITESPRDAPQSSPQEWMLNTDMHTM
UniProt Q9FL28, residues 24-1173: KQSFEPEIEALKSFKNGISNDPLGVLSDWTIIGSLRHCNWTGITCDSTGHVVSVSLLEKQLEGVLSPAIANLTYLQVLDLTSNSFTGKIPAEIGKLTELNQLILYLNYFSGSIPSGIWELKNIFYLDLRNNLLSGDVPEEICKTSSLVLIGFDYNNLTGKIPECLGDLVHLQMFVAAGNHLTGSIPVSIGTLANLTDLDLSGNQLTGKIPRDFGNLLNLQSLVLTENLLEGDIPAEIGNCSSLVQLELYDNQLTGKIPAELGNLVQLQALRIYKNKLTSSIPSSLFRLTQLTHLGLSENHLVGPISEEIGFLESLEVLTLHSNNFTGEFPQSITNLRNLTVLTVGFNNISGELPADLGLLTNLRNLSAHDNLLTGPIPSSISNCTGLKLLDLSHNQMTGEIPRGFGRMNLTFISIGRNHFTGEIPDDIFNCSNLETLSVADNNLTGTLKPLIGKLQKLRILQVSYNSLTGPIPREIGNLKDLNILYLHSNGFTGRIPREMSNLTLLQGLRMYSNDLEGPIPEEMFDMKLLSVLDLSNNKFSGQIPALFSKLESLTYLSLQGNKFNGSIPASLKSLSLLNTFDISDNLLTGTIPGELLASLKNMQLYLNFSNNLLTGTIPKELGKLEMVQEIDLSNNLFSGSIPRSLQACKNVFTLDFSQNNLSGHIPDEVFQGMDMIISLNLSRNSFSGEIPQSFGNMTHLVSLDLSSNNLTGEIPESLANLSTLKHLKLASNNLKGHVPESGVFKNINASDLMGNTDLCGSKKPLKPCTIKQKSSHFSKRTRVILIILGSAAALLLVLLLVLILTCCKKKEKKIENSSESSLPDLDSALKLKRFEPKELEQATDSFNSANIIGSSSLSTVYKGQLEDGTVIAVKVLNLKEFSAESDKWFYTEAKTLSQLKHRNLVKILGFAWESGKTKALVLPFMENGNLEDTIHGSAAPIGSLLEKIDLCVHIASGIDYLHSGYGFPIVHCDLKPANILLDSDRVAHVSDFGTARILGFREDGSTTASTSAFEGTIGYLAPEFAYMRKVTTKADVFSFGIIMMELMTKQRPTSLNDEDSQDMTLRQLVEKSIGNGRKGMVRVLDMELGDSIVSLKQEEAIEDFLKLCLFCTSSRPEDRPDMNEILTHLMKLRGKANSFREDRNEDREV
UniProt Q8H186: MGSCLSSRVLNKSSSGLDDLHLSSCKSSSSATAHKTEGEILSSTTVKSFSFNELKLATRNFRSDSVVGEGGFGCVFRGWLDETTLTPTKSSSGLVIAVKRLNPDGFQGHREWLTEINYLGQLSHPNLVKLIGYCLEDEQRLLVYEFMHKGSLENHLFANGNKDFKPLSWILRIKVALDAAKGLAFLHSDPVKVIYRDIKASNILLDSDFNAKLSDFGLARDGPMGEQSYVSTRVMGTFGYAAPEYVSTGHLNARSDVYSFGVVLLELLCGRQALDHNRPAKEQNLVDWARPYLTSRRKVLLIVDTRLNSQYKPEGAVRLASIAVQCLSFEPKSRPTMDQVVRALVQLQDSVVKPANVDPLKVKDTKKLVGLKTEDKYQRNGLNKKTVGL

For assay [2], the target named is T2, RPM1-interacting protein 4 (RIN4), BiFC fusion (Arabidopsis) (UniProt Q8GYN5).
T2 sequence: T1 sequence
Kind of assay: split reporter.

Assay [3] has as its target T3, RPM1-interacting protein 4 (RIN4), expressed in N. benthamiana (Arabidopsis) (UniProt Q8GYN5).
T3 sequence: T1 sequence
As to the kind of experiment: co-IP.

Assay [4] has as its target EFR, expressed in N. benthamiana (UniProt C0LGT6). As to the kind of experiment: co-IP.
Assay [5] has as its target flagellin sensing 2 (FLS2), expressed in N. benthamiana (UniProt Q9FL28). As to the kind of experiment: co-IP.

These are yes or no findings as the source states them, for the method shown. Binding seen in cells or lysates may run through a third protein. Some results given as binding are weak or reduced against the parent protein; the word gives no strength. For some assays here: Where a sequence is shown, tags or fusion partners need not be part of it.

This passage reports binding results from article doi:10.1101/2025.09.03.673898.

“PBL1-HA in 35S::PBL1-HA transgenic plants (from UniProt Q8H186 1-389) (enzyme)”: the binding entry in assay [1] is recorded as “binds”. Regarding “PBS1-like 1 (PBL1), BiFC fusion (from UniProt Q8H186 1-389) (enzyme)”, in assay [2], the binding result is “binds”.

Turning to “PBS1-like 1 (PBL1), expressed in N. benthamiana (from UniProt Q8H186 1-389) (enzyme)”, the binding entry in assay [3] is listed as “binds weakly”.

B1: RPM1-interacting protein 4 (RIN4), expressed in N. benthamiana (protein, UniProt Q8GYN5 1-211)
chain: T1 sequence
In the case of B1, the binding entry in assay [4] and in assay [5] was “binds” throughout.
